From article PMC12595034
Results are given in words; binding and its absence hold for the method and conditions named. In cells and extracts the contact can be indirect. A yes stands for co-enrichment or nearness to the bait. Other partners may have been found.

Protein sequences, listed by entry. Tags and fused reporters are not part of them. Lines headed by an entry give the natural chain unless they say otherwise; changes in a name come on top.
UniProt F4IWJ9: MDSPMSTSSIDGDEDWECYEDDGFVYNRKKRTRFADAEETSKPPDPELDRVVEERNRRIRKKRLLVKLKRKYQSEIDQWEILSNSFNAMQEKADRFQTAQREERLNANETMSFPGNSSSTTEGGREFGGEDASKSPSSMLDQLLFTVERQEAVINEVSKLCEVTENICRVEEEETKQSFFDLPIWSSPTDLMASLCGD
UniProt A0A1P8AM80: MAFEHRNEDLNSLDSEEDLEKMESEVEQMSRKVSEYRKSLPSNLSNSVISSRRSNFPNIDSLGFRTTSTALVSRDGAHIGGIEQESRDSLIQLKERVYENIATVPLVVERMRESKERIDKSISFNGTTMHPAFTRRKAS
UniProt F4JHD1: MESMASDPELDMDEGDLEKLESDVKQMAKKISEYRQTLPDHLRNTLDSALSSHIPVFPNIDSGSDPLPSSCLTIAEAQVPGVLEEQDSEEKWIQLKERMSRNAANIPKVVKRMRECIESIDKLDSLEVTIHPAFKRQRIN
UniProt F4HR01: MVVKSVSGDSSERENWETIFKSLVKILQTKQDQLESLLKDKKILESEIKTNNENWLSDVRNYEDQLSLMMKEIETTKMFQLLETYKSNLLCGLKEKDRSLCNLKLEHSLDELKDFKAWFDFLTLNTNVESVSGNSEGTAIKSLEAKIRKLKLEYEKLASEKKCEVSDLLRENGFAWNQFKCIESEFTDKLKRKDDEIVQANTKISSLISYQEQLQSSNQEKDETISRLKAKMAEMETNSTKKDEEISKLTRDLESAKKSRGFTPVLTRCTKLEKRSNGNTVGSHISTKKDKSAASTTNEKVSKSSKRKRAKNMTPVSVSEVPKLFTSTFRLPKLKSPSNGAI
UniProt F4J2K4: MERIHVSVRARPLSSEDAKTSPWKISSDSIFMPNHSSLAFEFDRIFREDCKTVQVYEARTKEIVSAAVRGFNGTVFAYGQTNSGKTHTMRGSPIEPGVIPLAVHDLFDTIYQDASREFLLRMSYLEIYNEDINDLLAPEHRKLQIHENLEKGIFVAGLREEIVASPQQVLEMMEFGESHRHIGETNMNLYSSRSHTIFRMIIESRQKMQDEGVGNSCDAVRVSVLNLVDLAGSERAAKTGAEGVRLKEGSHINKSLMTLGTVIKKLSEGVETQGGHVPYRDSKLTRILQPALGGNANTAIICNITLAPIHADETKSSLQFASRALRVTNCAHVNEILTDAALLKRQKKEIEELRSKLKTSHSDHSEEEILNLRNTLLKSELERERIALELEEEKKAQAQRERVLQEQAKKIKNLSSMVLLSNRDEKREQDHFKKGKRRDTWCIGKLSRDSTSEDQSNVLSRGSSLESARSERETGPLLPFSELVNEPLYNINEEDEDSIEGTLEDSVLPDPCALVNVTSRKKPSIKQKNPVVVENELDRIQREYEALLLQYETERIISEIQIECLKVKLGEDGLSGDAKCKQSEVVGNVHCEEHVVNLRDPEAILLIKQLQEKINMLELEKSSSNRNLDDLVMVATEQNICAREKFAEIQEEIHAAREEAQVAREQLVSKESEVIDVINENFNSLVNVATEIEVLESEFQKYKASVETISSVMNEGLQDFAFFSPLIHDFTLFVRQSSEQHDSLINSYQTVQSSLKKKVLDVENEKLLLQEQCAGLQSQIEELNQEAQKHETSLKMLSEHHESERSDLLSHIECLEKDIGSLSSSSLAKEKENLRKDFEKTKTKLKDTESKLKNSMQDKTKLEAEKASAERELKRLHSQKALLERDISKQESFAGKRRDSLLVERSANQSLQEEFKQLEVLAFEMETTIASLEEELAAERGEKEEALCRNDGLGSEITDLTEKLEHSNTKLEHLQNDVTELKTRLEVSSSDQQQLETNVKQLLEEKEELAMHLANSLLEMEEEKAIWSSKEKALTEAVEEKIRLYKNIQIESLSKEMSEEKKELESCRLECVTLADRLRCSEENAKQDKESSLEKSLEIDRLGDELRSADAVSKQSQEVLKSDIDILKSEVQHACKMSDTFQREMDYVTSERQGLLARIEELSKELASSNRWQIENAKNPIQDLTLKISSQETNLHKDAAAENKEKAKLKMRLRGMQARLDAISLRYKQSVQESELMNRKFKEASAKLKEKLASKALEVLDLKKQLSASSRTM
UniProt Q9M1J8: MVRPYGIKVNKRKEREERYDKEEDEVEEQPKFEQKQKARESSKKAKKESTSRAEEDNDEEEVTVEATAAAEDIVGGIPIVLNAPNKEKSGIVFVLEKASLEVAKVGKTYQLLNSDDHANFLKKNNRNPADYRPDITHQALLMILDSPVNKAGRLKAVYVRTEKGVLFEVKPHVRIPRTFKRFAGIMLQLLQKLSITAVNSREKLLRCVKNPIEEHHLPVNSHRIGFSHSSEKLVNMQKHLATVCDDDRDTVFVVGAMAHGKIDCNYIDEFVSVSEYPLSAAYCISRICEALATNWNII

What was measured:
Experiment in all cases: affinity purification with mass spectrometry; GSrhino-tagged bait expressed in Arabidopsis cell suspension culture; pull-down in triplicate for each bait, on-bead digest, Q Exactive; hits filtered by NSAF against a large control AP-MS dataset of non-related baits
[1] = biological target: NGSrhino-DSN1 (Arabidopsis thaliana) (UniProt F4IWJ9)
[2] = biological target: DSN1-CGSrhino (Arabidopsis thaliana) (UniProt F4IWJ9)
[3] = biological target: NGSrhino-KNL1 (Arabidopsis thaliana)

binding [1]	binding [2]	binding [3]	Molecule
binds	binds		NSL1.2 (from UniProt A0A1P8AM80)
binds			UGE5 (protein, UniProt Q9SN58 1-351) MMARNVLVSGGAGYIGSHTVLQLLLGGYSVVVVDNLDNSSAVSLQRVKKLAAEHGERLSFHQVDLRDRSALEKIFSETKFDAVIHFAGLKAVGESVEKPLLYYNNNLVGTITLLEVMAQHGCKNLVFSSSATVYGSPKEVPCTEEFPISALNPYGRTKLFIEEICRDVYGSDPEWKIILLRYFNPVGAHPSGDIGEDPRGIPNNLMPFVQQVAVGRRPHLTVFGNDYNTKDGTGVRDYIHVIDLADGHIAALRKLEDCKIGCEVYNLGTGNGTSVLEMVDAFEKASGKKIPLVIAGRRPGDAEVVYASTERAESELNWKAKYGIEEMCRDLWNWASNNPYGYDSSSEDNSH
	binds		Protein phosphatase 2 A (protein, UniProt Q39247 1-501) MNGGDDAATSGPPPSLEWRFSQVFGERTAGEEVQEVDIISAIEFDKSGDHLATGDRGGRVVLFERTDTKDHGGSRKDLEQTDYPVRHPEFRYKTEFQSHEPEFDYLKSLEIEEKINKIRWCQPANGALFLLSTNDKTIKYWKVQEKKIKKISEMNIDPSESSNIPPQLVTNGLPADKGHDYLSKDFSFPPGGIPSLRLPVVVTSQETNLVARCRRVYAHAHDYHINSISNSSDGETFISADDLRVNLWNLEISNQSFNIVDVKPTNMEDLTEVITSAEFHPIHCNMLAYSSSKGSIRLIDMRQSALCDSHTKLFEEPEAPGSRSFFTEIIASISDIKFSKDGRYILSRDYMTLKLWDINMDSGPVASYQVHEHLRPRLCDLYENDSIFDKFECCLSGDGLRVATGSYSNLFRVFGASQGSTEAATLEASKNPMRRQIQTPARPSRSIGSMTRVVRRGSESPGTEANGNAYDFTTKLLHMAWHPTENSIACAAANSLYMYYA
	binds		casein kinase II beta subunit 4 (protein, UniProt O80507 1-283) MYKDRSGGGIMGGGGSSRSEILGGAIDRKRINDALDKHLKKSSPSTSRVFTSKDKDSVPSTSTAKSQLHSRSPDVESDTDSEGSDVSGSEGDDTSWISWFCNLRGNEFFCEVDEDYIQDDFNLCGLSGQVPYYDYALDLILDVESSNGDMFTEEQHEMVESAAEMLYGLIHVRYILTTKGMAAMMEKYKNYDFGRCPRVFCCGQSCLPVGQSDIPRSSTVKIYCPKCEDIYYPRSKYQGNIDGAYFGTTFPHLFLMAYGNMKPQKPAQNYVPKIFGFKVHNKQ
		binds	atPEIP2, AtPEP2|Transducin/WD40 repeat-like superfamily protein (protein, UniProt Q9LF27 1-433) MDIDGEDVSRRLHVKFVTKLDSPFKVPVNSVAIPSNVTRLGLSSIVNSIIESENPEWKTEPFDFLIDGELIRMSLEEFLLAKGISAERTLEIEYIRAVTPRKEEEPSLHDDWVSAVNGSSPRFILTGCYDGLGRVWSSAGSCSHILEGHSGAISSVALVNSNDAETVTVATASKDRTLRLFKFDPAESVDSTTKVRAYKILRGHKASVQSVSAQKSGNMVCSSSWDCTINLWNTNESTSEGESVSVKKRKGNNQAEESQSEGEAVTSLVGHTQCVSSVVWPEHDVIYSSSWDHSVRRWDVETGKDSLNLFCGKALNTVDVGGESSALIAAGGSDPILRVWDPRKPGTSAPVFQFSSHSSWISACKWHKSSWFHLLSASYDGKIMLWDLRTAWPLSVIDTHNDKVLSADWWKGESVVSGGADSNLRISSGIAIS

Continued, molecule first:

Molecule	binding [1]	binding [2]	binding [3]
NSL1.1 (from UniProt F4JHD1)	binds	binds	
AT1G19980 (from UniProt F4HR01)	binds	binds	
CENP-E (from UniProt F4J2K4)	binds	binds	
AT3G57000 (from UniProt Q9M1J8)	binds		
ATUBA2, UBA 2|ubiquitin activating enzyme 2 (protein, UniProt P92974 1-1077) MEPFVVKENIIASASSPMKKRRIDHTESADGSAINASNSSSIGLNNSIGGNDTVMSMAEFGNDNSNNQEIDEDLHSRQLAVYGRETMRKLFASNVLISGMQGLGVEIAKNIILAGVKSVTLHDENVVELWDLSSNFVFTEEDIGKNRALASVHKLQELNNAVAVSTLTGKLTKEQLSDFQVVVFVDISFEKATEIDDYCHSHQPPIAFIKADVRGLFGSLFCDFGPHFTVLDVDGEEPHSGIIASVSNENPGFVSCVDDERLEFEDGNLVVFSEVEGMTELNDGKPRKIKNVKPFSFTLEEDTSSYGQYMKGGIVTQVKQPKVLNFKPLREALKDPGDFLLSDFSKFDRPPLLHLAFQALDRFSSQAGRFPFAGSEEDAQKLVEIAVDINEGLGDARLEDVNSKLLRHLAFGSRAVLNPMAAMFGGIVGQEVVKACSGKFHPIFQFFYFDSVESLPKEPLDASEFRPQNSRYDAQISVFGSTLQKKLEDARVFVVGAGALGCEFLKNLALMGVSCGTQGKLTVTDDDVIEKSNLSRQFLFRDWNIGQAKSTVAATAAAGINSRLNIDALQNRVGPETENVFDDSFWENLTVVVNALDNVTARLYVDSRCVYFQKPLLESGTLGAKCNTQMVIPHLTENYGASRDPPEKQAPMCTVHSFPHNIDHCLTWARSEFEGLLEKTPAEVNAYLSDPVEYMKAMRTAGDAQARDTLGRVVECLEKEKCNSFQDCITWARLRFEDYFANRVKQLCYTFPEDAATSTGAPFWSAPKRFPRPLQFSSTDLSHINFVMAASILRAETFGIPTPEWAKTRAGLAEAVERVIVPDFEPKKDATIVTDEKATTLSTASVDDAAVIDELNAKLVRCRMSLQPEFRMKAIQFEKDDDTNYHMDMIAGLANMRARNYSVPEVDKLKAKFIAGRIIPAIATSTAMATGFVCLEMYKVLDGSHKVEDYRNTFANLALPLFSMAEPVPPKVVKHQDQSWTVWDRWVMRGNPTLRELLDWLKEKGLNAYSISCGSSLLYNSMFSRHKERMNRRVVDLARDVAGVELPAYRRHVDVVVACEDDNDADVDIPLVSVYFA			binds
AtECA2/PICALM5a (protein, UniProt Q9SA65 1-599) MGSSKFKRAIGAVKDQTSVGLAKVNGRSASLSELDVAIVKATRHEEFPAEEKYIREILSLTSYSRSYINACVSTLSRRLNKTKCWTVALKTLILIQRLLGEGDQAYEQEIFFATRRGTRLLNMSDFRDVSRSNSWDYSAFVRTYALYLDERLDFRMQARHGKRGVYCVGGEADEEEQDQAAADLSTAIVVRSQPIAEMKTEQIFIRIQHLQQLLDRFLACRPTGNARNNRVVIVALYPIVKESFQIYYDVTEIMGILIERFMELDIPDSIKVYDIFCRVSKQFEELDQFYSWCKNMGIARSSEYPEIEKITQKKLDLMDEFIRDKSALEHTKQSKSVKSEADEDDDEARTEEVNEEQEDMNAIKALPEPPPKEEDDVKPEEEAKEEVIIEKKQEEMGDLLDLGNTNGGEAGQAGDSLALALFDGPYASGSGSESGPGWEAFKDDSADWETALVQTATNLSGQKSELGGGFDMLLLNGMYQHGAVNAAVKTSTAYGASGSASSMAFGSAGRPAATMLALPAPSTANGNAGNINSPVPMDPFAASLEVAPPAYVQMNDMEKKQRMLMEEQMMWDQYSRDGRQGHMNLRQNQNQPYSYTPQY	binds	binds	
HSP20-like chaperones superfamily (protein, UniProt Q9ZW31 1-153) MSMIPSFFNNNRRSNIFDPFSLDVWDPFKELTSSSLSRENSAIVNARVDWRETPEAHVFKADLPGLKKEEVKVEIEEDSVLKISGERHVEKEDKNDTWHRVERSSGQFTRRFRLPENVKMDQVKAAMENGVLTVTVPKAETKKADVKSIQISG			binds
CRWN4 (protein, UniProt Q9FLH0 1-1010) MATSSRSERFPITPSTAATNRLTITPNSRVLKSPLTEEIMWKRLKDAGFDEQSIKNRDKAALIAYIAKLESEVYDYQHNMGLLLLEKNELSSQYEEIKASVDESDLTHMREKSAYVSALAEAKKREESLKKDVGIAKECISSLEKTLHEMRAECAETKVSAGSTMSEAHVMIEDALKKLADAEAKMRAAEALQAEANRYHRIAERKLKEVESREDDLTRRLASFKSECETKENEMVIERQTLNERRKSLQQEHERLLDAQVSLNQREDHIFARSQELAELEKGLDTAKTTFEEERKAFEDKKSNLEIALALCAKREEAVSERESSLLKKEQELLVAEEKIASKESELIQNVLANQEVILRKRKSDVEAELECKSKSVEVEIESKRRAWELREVDIKQREDLVGEKEHDLEVQSRALAEKEKDITEKSFNLDEKEKNLVATEEDINRKTTMLEDEKERLRKLDLELQQSLTSLEDKRKRVDSATQKLEALKSETSELSTLEMKLKEELDDLRAQKLEMLAEADRLKVEKAKFEAEWEHIDVKREELRKEAEYITRQREAFSMYLKDERDNIKEERDALRNQHKNDVESLNREREEFMNKMVEEHSEWLSKIQRERADFLLGIEMQKRELEYCIENKREELENSSRDREKAFEQEKKLEEERIQSLKEMAEKELEHVQVELKRLDAERLEIKLDRERREREWAELKDSVEELKVQREKLETQRHMLRAERDEIRHEIEELKKLENLKVALDDMSMAKMQLSNLERSWEKVSALKQKVVSRDDELDLQNGVSTVSNSEDGYNSSMERQNGLTPSSATPFSWIKRCTNLIFKTSPEKSTLMHHYEEEGGVPSEKLKLESSRREEKAYTEGLSIAVERLEAGRKRRGNTSGDETSEPSNNKKRKHDVTQKYSDEADTQSVISSPQNVPEDKHELPSSQTQTPSGMVVISETVKITRVTCETEVTNKVTTLDCSESPSEAGRKMGEETEDGDCNQTGINASETVIHNEAATEDICT		binds	
BIN4, MID|double-stranded DNA binding protein (protein, UniProt Q9FLU1 1-454) MSSSSREGSPDWLRSYEAPMTTSLLSLSSSDDDSPYRESEVISSLPLPDDDGDDIVVLETESVELLTRKNSETKVVTKQVSIEQVFSRKKKADASLNLEDSCAGKENGNNVDCEKLSSKHKDAQGGADSVWLVSSDSEPSSPIKQEVTVSTEKDADFVLEATEEEPAVKTVRKEKSPKTKSKSSRKTPKEGNSAQEILKTEDKDTDTTIAEQVTPEKSPKTKSKSSRKTPKEENCAQEILKTEDKDKDTDTDTIIAEEVTTDQKIKPSSGSSSRLPLVLSEKVNRTKVLVECEGDSIDLSGDMGAVGRVVVSDTTGDMYLDLKGTIYKSTIIPSRTFCVVNVGQTEAKIEAIMNDFIQLIPQSNVYEAETMVEGTLEGFTFESDDESNKNAKTAVKPADQSVGTEEETNTKAKPKAKAKGETVIGKKRGRPSKEKQPPAKKARNSAPKKPKAKK			binds
ATEXPB3, ATHEXP BETA 1.6, EXPB3|expansin B3 (protein, UniProt Q9M0I2 26-264) TTNRHVSNSHWLPAVATWYGSPNGDGSDGGACGYGTLVDVKPLHARVGAVNPILFKNGEGCGACYKVRCLDKSICSRRAVTVIITDECPGCSKTSTHFDLSGAVFGRLAIAGESGPLRNRGLIPVIYRRTACKYRGKNIAFHVNEGSTDFWLSLLVEFEDGEGDIGSMHIRQAGAREWLEMKHVWGANWCIIGGPLKGPFSIKLTTLSAGKTLSATDVVPRNWAPKATYSSRLNFSPVL			binds
